Laboratory results: PMC11285970
Results are given in words; binding and its absence hold for the method and conditions named. In cells and extracts the contact can be indirect. Binding can be weak; no strength is given. For part of these data: Where a sequence is shown, tags or fusion partners need not be part of it.

The chains behind the UniProt entries cited, without tags or fusion partners. Where a name states a change or a piece, a line headed by the entry shows the natural chain unless it says otherwise.
UniProt A4HV28: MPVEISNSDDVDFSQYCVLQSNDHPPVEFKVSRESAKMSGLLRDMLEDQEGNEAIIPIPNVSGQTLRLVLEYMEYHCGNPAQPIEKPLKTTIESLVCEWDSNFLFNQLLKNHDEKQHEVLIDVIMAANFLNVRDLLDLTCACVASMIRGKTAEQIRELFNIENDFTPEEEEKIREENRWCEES
UniProt Q13616: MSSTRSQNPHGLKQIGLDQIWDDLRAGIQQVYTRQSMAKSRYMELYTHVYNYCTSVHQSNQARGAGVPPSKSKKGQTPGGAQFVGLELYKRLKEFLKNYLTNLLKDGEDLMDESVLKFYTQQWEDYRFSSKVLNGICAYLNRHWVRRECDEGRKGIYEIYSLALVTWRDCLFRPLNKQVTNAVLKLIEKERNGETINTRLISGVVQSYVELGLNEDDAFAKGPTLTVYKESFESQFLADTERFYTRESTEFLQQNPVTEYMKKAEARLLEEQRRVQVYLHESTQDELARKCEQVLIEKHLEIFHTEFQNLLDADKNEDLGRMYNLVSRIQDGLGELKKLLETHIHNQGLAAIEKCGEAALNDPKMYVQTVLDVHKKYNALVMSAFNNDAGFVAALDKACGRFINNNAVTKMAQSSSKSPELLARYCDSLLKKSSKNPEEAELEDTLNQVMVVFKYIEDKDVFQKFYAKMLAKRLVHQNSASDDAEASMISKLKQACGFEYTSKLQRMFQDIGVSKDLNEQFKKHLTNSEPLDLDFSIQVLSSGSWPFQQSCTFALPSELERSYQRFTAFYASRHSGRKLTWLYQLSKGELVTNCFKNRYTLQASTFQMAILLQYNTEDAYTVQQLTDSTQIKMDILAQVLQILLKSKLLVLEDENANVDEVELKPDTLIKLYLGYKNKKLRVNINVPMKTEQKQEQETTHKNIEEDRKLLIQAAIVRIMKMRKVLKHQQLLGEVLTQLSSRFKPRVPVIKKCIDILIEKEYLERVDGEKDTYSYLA
UniProt A4I137: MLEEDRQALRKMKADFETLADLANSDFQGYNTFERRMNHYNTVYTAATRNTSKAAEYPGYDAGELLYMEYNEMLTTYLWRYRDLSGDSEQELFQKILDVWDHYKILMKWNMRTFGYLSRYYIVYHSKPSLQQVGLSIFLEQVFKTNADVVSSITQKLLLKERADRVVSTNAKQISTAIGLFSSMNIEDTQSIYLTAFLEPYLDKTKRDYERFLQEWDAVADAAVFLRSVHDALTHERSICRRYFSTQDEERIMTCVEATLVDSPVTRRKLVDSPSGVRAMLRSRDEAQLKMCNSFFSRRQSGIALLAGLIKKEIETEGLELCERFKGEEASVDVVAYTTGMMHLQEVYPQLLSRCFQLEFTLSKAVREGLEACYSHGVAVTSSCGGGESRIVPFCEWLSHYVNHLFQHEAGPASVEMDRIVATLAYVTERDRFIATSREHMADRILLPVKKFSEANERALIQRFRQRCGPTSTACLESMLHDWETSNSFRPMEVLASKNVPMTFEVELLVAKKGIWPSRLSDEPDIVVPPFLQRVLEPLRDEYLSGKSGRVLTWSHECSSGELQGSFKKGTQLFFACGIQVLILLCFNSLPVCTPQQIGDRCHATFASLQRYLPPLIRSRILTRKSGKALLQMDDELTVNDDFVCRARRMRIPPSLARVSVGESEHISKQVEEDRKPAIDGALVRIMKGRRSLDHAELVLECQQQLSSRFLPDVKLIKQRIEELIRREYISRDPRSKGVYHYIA
UniProt A4HZL7: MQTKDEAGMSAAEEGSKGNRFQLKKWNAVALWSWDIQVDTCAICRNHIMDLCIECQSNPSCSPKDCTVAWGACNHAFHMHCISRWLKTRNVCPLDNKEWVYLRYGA
UniProt P63208: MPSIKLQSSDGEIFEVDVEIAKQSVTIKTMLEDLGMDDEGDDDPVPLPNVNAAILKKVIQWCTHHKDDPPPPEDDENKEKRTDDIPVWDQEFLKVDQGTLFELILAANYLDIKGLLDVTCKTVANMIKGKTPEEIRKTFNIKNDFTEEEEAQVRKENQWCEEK

Columns and labels:
Assay in all cases: co-IP; HEK293T cells co-transfected with the plasmids; NP-40 lysis buffer (50 mM Tris-HCl pH 7.2, 225 mM KCl, 1% NP-40); about 3 mg lysate on anti-FLAG agarose beads 3 h at 4 °C; eluted with FLAG peptide; western blot
[1] = target: LinfSkp1-FLAG (L. infantum SKP1-like protein, LINF_110018100) (L. infantum) (UniProt A4HV28)
CUL1-FLAG (Hs) (human) = CUL1-FLAG (Hs) (human) (UniProt Q13616)
[2] = target: T1, 2xFLAG-FBXO7 (Hs) (human) (UniProt Q9Y3I1)
T1 sequence: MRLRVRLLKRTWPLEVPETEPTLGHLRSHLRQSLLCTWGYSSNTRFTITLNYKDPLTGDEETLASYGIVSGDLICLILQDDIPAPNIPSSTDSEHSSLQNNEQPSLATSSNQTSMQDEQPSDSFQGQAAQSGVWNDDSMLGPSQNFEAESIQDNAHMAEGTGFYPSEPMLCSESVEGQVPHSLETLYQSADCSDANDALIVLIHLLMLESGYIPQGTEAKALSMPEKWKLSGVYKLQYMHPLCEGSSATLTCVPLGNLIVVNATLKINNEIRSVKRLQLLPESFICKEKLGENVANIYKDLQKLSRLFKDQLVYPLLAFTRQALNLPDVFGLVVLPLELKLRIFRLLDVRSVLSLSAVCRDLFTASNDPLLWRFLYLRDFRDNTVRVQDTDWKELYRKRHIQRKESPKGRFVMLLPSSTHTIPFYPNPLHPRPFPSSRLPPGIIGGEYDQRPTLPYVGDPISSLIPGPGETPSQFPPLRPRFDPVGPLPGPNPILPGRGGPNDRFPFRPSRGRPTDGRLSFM

[3] = target: LinfCul1-FLAG (L. infantum cullin-like protein-like protein, LINF_240029100) (L. infantum) (UniProt A4I137)

| Substance | binding [1] | binding (CUL1-FLAG (Hs) (human)) | binding [2] | binding [3] |
| --- | --- | --- | --- | --- |
| LinfCul1-myc (L. infantum cullin-like protein-like protein, LINF_240029100) (from UniProt A4I137) | binds | – | – | – |
| LinfRbx1-HA (L. infantum ring-box protein 1 - putative, LINF_210005300) (from UniProt A4HZL7) | binds | binds | – | – |
| LinfSkp1-HA (L. infantum SKP1-like protein, LINF_110018100) (from UniProt A4HV28) | – | binds | binds | – |
| SKP1-HA (Hs) (from UniProt P63208 1-163) | – | – | – | binds |
